US20240307477A1, “COMPOSITION FOR PREVENTING OR TREATING LIVER FIBROSIS INCLUDING SANGUISORBA OFFICINALIS EXTRACT AS ACTIVE INGREDIENT” (KOREA INSTITUTE OF SCIENCE AND TECHNOLOGY, priority 2023, published 2024)
At least one structure is not confirmed: it was looked up by name or label, or the drawing left a doubt.

Legend:
Format in all cases: in vivo, C57BL/6J mice
[1] = system: liver fibrosis-induced mice; experiment: Hydroxyl proline content in liver tissue; details: CDA-HFD mice, 10 weeks; extract 25 or 100 mg/kg, OCA 15 mg/kg; vs CDA-HFD vehicle control
[2] = system: liver fibrosis-induced mice; experiment: H&E staining of liver tissue (lipid accumulation) in CDA-HFD liver fibrosis-induced mice; details: 10 weeks oral, extract 25 or 100 mg/kg, OCA 15 mg/kg once a day, compared to CDA-HFD-fed group
[3] = system: liver fibrosis-induced mice; experiment: Sirius red staining of liver tissue (liver fibrosis area); details: CDA-HFD mice, 10 weeks; extract 25 or 100 mg/kg, OCA 15 mg/kg; vs CDA-HFD vehicle control
[4] = system: liver fibrosis-induced mice; experiment: mRNA expression of fatty acid oxidation-related factors in liver tissue of liver fibrosis-induced mice; details: CDA-HFD mice, 10 weeks; extract 25 or 100 mg/kg, OCA 15 mg/kg; vs CDA-HFD vehicle control

CC[C@H]1[C@@H](O)[C@@H]2[C@H](CC[C@]3(C)[C@@H]([C@H](C)CCC(=O)O)CC[C@@H]23)[C@@]2(C)CC[C@@H](O)C[C@@H]12 [OCA, Obeticholic acid]
hydroxyl proline content in liver tissue [1]: significantly inhibited
liver lipid accumulation (H&E staining) [2]: reduced
liver fibrosis area (Sirius red) [3]: significantly inhibited
Lp1 gene expression in liver tissue [4]: lower
Ppara gene expression in liver tissue [4]: higher
